From US20220354957A1, “PEPTIDES TARGETING MACROPHAGES, AND CONJUGATES, COMPOSITIONS, AND USES THEREOF” (Twinpig Biolab, Inc., priority 2021, published 2022)
At least one peptide structure holds a part that was inferred or is arguable (an end, a ring closure or a residue). Some entries share one result that the patent states for a list of compounds.

Experiments:
mouse RBC = experiment: Hemolytic activity assay; assay type: cell-based; conditions: 0.1-50 μM, 37° C., 1 h, read-out: hemolysis IC50
Procedure: Mouse blood samples were collected in tubes containing heparin as an anticoagulant and stored at 4 ° C. before use. Whole blood sample were centrifuged at 1,500×g for 5 min and the resulting plasma fraction was removed from the samples. The pellets were washed with an equal volume of saline, mixing by inversion. The centrifuging and washing steps were repeated 5 times. Red blood cells were counted by a hemocytometer and adjusted to […]. Red blood cells were then incubated at 37° C. for 1 h in 1% Triton X-100 (positive control), in PBS (blank), or with increasing concentrations of TAMpep and Mpep (0.1-50 μM) were evaluated. The samples were then centrifuged at 10,000 g for 5 min, the supernatant was separated from the pellet, and its absorbance measured at 570 nm. The relative optical density compared to that of the suspension treated with 1% Triton X-100 was defined as the percentage of hemolysis.

[1] = tested on: THP-1-derived M2 macrophages; experiment: Affinity test of FITC-conjugated peptides by flow cytometry; assay type: cell-based, human; conditions: FITC-conjugated TAMpep fragments, FACS
Procedure: THP-1 monocytes were differentiated into macrophages by 24 h incubation with 100 nM phorbol 12-myristate 13-acetate (PMA, Sigma) followed by 24 h incubation in RPMI medium (Invitrogen). Macrophages were polarized in M1 macrophages (M1) by incubation with 20 ng/ml of IFN-γ (Prospec) and 100 ng/ml of LPS (Sigma). Macrophage M2 polarization(M2) was obtained by incubation with 20 ng/ml of interleukin (IL) 4 (Prospec) and 20 ng/ml of interleukin 13 (Prospec). M2-like tumor-associated macrophages were polarized by incubation with 20% conditioned medium of PC3 cells.
THP-1 cells were differentiated into macrophages by a 24 h incubation with 100 nM PMA and polarized in M2 macrophages by incubation with 20 ng/ml of IL-4 and 20 ng/ml of IL-13 for 72 h. Polarized cells were treated with 50 nM TAMpep and fragments of TAMpep or Mpep and alanine library of Mpep conjugated with FITC for 1 h. To test change of macrophage population in melanoma tissue, the single cells were isolated from tumor tissue through a 40 μm nylon mesh strainer after dissociation by DNase I (1 U/mL) and collagenase D (1 mg/ml). Cells were detected on BD FACSCalibur and BD FACSCantoII instruments and analyzed by FlowJo software.

Question: For `CC[C@H](C)[C@H](NC(=O)[C@H](CC(C)C)NC(=O)[C@H](C)NC(=O)[C@@H]1CCCN1C(=O)[C@H](CC(C)C)NC(=O)CNC(=O)[C@@H](NC(=O)[C@@H](NC(=O)[C@H](CC(C)C)NC(=O)[C@@H](NC(C)=O)C(C)C)[C@@H](C)O)[C@@H](C)O)C(=O)N[C@@H](CO)C(=O)N[C@@H](Cc1c[nH]c2ccccc12)C(=O)N[C@H](C(=O)N[C@@H](CCCCN)C(=O)N[C@@H](CCCNC(=N)N)C(=O)N[C@@H](CCCCN)C(=O)N[C@@H](CCCNC(=N)N)C(=O)N[C@@H](CCC(N)=O)C(=O)N[C@@H](CCC(N)=O)C(=O)NCC(=O)NCC(=O)NCC(=O)NCC(=O)N[C@@H](CO)C(=O)N[C@H](CCCCN)C(=O)N[C@H](CC(C)C)C(=O)N[C@H](C)C(=O)N[C@H](CCCCN)C(=O)N[C@H](CC(C)C)C(=O)N[C@H](C)C(=O)N[C@H](CCCCN)C(=O)N[C@H](CCCCN)C(=O)N[C@H](CC(C)C)C(=O)N[C@H](C)C(=O)N[C@H](CCCCN)C(=O)N[C@H](CC(C)C)C(=O)N[C@H](C)C(=O)N[C@H](CCCCN)C(=O)O)[C@@H](C)CC` [MpepK], which IC50 (mouse RBC) is on record?
Answer: > 50 µM

Question: How did the “affinity in M2 macrophages (in words)” value [1] turn out when `CC[C@H](C)[C@H](NC(=O)[C@H](CC(C)C)NC(=O)[C@H](C)NC(=O)[C@@H]1CCCN1C(=O)[C@H](CC(C)C)NC(=O)CNC(=O)[C@@H](NC(=O)[C@@H](NC(=O)[C@H](CC(C)C)NC(=O)[C@@H](NC(C)=O)C(C)C)[C@@H](C)O)[C@@H](C)O)C(=O)N[C@@H](CO)C(=O)N[C@@H](Cc1c[nH]c2ccccc12)C(=O)N[C@H](C(=O)N[C@@H](CCCCN)C(=O)N[C@@H](CCCNC(=N)N)C(=O)N[C@@H](CCCCN)C(=O)N[C@@H](CCCNC(=N)N)C(=O)N[C@@H](CCC(N)=O)C(=O)N[C@@H](CCC(N)=O)C(=O)O)[C@@H](C)CC` [Mpep, Val-Leu-Thr-Thr-Gly-Leu-Pro-Ala-Leu-Ile-Ser-Trp-Ile-Lys-Arg-Lys-Arg-Gln-Gln] was run?
Answer: high affinity

Question: What about the IC50 (mouse RBC) of the same compound?
Answer: > 50 µM
